For assay [1], the target named is T1, BP full length fused to a YFP fragment (BiFC) (Arabidopsis thaliana) (UniProt P46639).
T1 sequence: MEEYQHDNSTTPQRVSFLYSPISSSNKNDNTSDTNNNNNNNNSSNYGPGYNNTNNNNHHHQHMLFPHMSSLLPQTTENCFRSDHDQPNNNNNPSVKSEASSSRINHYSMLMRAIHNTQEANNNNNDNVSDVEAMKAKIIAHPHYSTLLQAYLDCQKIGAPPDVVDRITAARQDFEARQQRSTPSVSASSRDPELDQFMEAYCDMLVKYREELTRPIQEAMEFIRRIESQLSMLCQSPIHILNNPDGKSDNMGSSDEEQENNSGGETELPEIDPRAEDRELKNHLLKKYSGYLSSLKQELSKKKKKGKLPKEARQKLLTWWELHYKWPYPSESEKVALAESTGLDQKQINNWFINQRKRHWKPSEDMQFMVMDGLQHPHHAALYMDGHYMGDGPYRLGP
Briefly: split reporter; BiFC with YN (pUC-pSPYNE) and YC (pUC-pSPYCE) fusions, transient expression in tobacco BY-2 cells by PEG; confocal imaging.

For assay [2], the target named is T2, BD-BP (full-length B…US fused to pGBKT7) (Arabidopsis thaliana) (UniProt P46639).
T2 sequence: T1 sequence
Briefly: two-hybrid; Matchmaker Gold system, pGBKT7 and pGADT7 constructs co-transformed into yeast strain Gold Y2H; growth on QDO (SD/-Leu/-Trp/-His/-Ade) with X-a-Gal.

In assay [3] the target is T3, BP MEINOX domain (amino acids 130-240), yeast two-hybrid deletion construct (Arabidopsis thaliana) (UniProt P46639).
T3 sequence: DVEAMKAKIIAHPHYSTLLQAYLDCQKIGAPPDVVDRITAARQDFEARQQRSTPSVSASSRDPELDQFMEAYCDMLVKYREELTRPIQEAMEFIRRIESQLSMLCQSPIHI
The description is as above.

For assay [4], the target named is T4, His-BP recombinant protein (Arabidopsis thaliana) (UniProt P46639).
T4 sequence: T1 sequence
Briefly: native gel or EMSA; purified BP-His and BRM (689-952aa)-GST pre-incubated, then with biotin-labelled KNAT2 or KNAT6 DNA probes, 4°C; 5% polyacrylamide gel, 0.5x TBE; slower shifted bands; both purified.

The target of assay [5] is T4, His-BP recombinant protein (Arabidopsis thaliana). Briefly: pull-down; His-BP bound to His resin in phosphate buffer (10 mM Na2HPO4, 10 mM NaH2PO4, 500 mM NaCl, 10 mM imidazole), 4°C; BRM (689-952aa)-GST or GST added for 2 h; western blot with an anti-His antibody; both purified.
Assay [6] concerns the target T5, BP-GFP (full length BP fused with a GFP tag) (Arabidopsis thaliana) (UniProt P46639).
T5 sequence: T1 sequence
Briefly: co-IP; BP-GFP and BRM-Δ-FLAG co-expressed in N. benthamiana leaves; extract (50 mM Tris-HCl pH 7.4, 150 mM NaCl, 2 mM MgCl2, 1 mM DTT, 20% glycerol, 1% NP-40) on GFP-Trap A beads, 4°C, 4 h; blot with anti-Flag.

No constants are given. Whether binding was seen depends on the method and setting. For some of these results: Binding seen in cells or lysates may run through a third protein. Some binding calls cover weakened binding; strength is not graded here. For some of these results: Where a sequence is shown, tags or fusion partners need not be part of it.

Results on 5 molecules are retold here after paper PMC4379049.

Regarding “BRM full length fused to a YFP fragment (BiFC) (from UniProt Q6EVK6 1-2193)”, the binding result in assay [1] is “binds”.
As for “AD-BRM (full-length BRAHMA fused to pGAKT7) (from UniProt Q6EVK6 1-2193)”, the binding result in assay [2] and in assay [3] was “binds” in each case.

B1: BRM DII domain (amino acids 689-952), yeast two-hybrid deletion construct (domain or fragment, UniProt Q6EVK6 689-952)
chain: ICEEGAEFLSKKRTDSLKKINGLLAKNLERKRIRPDLVLRLQIEEKKLRLSDLQSRVREEVDRQQQEIMSMPDRPYRKFVRLCERQRLEMNRQVLANQKAVREKQLKTIFQWRKKLLEAHWAIRDARTARNRGVAKYHEKMLREFSKRKDDGRNKRMEALKNNDVERYREMLLEQQTNMPGDAAERYAVLSSFLTQTEDYLHKLGGKITATKNQQEVEEAANAAAVAARLQGLSEEEVRAAATCAREEVVIRNRFTEMNAPKEN
In the case of B1, the binding entry in assay [2] is given as “binds”.

B2: BRM (689-952aa)-GST (domain or fragment, UniProt Q6EVK6 689-952)
chain: B1 chain
Consider B2, for which the binding result in assay [4] and in assay [5] was “binds” in each case.

B3: BRM-Δ-FLAG (DII domain, amino acids 689-952, of BRM fused with three FLAG tags) (domain or fragment, UniProt Q6EVK6 689-952)
chain: B1 chain
B3: the binding result in assay [6] is given as “binds”.
